Compound in the assay: Cc1cc(ccc1-c1ccccc1)C(=O)N1CCCN(CC1)C(=O)CCl [compound 10]
Kind of assay: probe-labelled cysteine peptide fold change vs DMSO (competition) (log2 fold change); higher = less target engagement (more negative = stronger competition). Particulars: THP-1, incubation time: 4 h.

The chains behind the UniProt entries cited, without tags or fusion partners. Where a name states a change or a piece, a line headed by the entry shows the natural chain unless it says otherwise.
UniProt Q9H6R0: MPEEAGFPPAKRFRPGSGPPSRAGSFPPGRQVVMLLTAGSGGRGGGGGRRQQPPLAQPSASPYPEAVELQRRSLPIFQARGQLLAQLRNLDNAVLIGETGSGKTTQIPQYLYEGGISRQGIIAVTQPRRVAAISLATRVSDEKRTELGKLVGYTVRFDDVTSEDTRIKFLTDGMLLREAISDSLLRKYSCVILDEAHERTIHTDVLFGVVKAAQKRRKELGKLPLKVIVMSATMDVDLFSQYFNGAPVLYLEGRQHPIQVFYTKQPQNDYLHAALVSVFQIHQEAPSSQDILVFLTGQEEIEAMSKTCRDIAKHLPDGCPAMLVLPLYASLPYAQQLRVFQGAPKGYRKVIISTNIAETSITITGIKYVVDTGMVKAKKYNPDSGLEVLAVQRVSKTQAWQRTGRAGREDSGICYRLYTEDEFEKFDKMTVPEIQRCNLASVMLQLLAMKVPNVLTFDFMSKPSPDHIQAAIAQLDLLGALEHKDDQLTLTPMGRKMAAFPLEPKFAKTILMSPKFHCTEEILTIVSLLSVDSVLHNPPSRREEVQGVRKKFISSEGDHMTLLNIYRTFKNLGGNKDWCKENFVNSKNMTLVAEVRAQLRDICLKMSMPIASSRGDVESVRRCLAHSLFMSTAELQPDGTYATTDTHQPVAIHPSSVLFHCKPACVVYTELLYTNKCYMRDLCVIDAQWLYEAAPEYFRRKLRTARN
UniProt Q9Y2L1: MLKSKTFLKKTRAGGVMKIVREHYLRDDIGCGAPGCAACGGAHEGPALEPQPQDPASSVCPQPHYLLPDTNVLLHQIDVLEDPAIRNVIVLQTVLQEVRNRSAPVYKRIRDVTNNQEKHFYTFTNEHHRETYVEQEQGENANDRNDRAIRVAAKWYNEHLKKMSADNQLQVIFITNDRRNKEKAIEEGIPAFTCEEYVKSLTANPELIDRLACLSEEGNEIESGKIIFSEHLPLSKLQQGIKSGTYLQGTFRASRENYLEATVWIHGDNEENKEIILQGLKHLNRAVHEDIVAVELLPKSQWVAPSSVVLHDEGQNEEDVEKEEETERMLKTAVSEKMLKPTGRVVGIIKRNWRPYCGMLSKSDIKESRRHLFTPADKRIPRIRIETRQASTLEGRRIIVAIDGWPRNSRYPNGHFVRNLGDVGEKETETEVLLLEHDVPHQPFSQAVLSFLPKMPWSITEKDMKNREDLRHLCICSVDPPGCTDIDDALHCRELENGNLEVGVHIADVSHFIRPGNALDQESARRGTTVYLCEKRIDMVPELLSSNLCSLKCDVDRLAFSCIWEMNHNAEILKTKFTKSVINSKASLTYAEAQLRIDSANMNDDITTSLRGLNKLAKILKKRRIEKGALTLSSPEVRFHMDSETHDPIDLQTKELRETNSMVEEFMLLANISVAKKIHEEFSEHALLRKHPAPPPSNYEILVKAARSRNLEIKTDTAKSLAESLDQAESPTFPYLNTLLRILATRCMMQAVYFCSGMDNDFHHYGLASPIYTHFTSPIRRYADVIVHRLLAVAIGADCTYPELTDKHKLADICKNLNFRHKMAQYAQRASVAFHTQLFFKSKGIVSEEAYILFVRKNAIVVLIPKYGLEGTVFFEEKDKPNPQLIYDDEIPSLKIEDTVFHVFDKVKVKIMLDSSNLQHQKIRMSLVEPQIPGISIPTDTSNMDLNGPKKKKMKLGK
UniProt Q8IX18: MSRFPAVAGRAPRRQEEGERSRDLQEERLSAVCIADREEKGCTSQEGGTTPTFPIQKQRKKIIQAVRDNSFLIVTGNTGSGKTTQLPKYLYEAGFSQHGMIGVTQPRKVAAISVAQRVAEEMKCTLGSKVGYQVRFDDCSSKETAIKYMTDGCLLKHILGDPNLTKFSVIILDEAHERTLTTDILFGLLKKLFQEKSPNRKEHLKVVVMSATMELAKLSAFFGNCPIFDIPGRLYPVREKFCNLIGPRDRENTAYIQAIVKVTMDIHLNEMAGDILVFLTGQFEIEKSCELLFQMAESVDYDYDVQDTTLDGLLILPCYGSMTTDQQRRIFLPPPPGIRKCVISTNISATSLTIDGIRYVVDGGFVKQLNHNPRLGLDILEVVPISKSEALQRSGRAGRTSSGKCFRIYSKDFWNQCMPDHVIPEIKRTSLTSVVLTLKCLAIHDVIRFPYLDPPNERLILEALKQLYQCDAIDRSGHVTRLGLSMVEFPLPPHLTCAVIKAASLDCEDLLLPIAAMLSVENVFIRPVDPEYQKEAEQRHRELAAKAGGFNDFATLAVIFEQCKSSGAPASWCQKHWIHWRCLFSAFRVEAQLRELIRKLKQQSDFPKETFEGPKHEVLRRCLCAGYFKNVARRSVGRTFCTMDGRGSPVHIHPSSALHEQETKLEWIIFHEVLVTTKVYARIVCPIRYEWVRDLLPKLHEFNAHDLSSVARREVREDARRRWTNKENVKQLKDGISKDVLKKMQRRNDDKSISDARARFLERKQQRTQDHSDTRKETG
UniProt Q14689: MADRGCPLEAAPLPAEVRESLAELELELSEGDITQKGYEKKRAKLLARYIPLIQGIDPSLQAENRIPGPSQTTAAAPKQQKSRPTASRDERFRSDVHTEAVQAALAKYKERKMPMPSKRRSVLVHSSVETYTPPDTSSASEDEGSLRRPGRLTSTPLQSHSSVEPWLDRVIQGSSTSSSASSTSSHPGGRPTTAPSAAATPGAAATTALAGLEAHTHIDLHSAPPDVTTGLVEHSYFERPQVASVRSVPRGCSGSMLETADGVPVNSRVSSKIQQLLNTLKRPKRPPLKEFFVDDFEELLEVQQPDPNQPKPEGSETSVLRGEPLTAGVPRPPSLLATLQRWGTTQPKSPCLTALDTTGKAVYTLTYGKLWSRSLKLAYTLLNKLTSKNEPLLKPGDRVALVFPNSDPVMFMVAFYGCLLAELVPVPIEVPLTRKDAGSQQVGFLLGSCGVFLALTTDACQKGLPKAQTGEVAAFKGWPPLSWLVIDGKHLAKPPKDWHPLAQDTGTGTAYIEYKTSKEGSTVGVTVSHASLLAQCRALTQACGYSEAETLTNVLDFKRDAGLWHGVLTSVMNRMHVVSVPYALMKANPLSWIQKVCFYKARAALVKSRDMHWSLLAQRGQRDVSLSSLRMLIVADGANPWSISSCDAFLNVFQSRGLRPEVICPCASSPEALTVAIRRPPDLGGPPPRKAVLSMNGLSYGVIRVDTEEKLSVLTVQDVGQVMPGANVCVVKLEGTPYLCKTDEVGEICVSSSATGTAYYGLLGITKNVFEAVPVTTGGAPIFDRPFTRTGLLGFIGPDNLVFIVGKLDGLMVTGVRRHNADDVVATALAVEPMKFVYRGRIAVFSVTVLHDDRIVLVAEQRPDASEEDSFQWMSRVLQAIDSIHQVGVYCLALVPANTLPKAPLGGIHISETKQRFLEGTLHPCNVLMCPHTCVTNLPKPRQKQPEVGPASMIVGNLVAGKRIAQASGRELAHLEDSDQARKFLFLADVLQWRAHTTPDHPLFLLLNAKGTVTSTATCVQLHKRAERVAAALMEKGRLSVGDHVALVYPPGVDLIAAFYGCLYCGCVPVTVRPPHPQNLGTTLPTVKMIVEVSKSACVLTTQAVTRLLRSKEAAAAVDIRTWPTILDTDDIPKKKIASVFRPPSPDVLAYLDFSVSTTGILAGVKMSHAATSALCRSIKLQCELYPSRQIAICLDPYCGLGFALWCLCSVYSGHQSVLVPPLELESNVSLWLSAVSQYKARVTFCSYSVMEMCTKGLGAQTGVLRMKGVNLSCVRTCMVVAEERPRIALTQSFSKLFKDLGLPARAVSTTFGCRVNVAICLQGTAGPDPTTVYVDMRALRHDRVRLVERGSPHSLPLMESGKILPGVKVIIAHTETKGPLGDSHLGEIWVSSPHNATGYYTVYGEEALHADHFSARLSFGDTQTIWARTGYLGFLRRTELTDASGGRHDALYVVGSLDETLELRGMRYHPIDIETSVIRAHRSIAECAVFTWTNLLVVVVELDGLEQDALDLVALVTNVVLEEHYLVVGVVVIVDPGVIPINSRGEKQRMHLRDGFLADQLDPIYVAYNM
UniProt O75165, whole entry, looked up: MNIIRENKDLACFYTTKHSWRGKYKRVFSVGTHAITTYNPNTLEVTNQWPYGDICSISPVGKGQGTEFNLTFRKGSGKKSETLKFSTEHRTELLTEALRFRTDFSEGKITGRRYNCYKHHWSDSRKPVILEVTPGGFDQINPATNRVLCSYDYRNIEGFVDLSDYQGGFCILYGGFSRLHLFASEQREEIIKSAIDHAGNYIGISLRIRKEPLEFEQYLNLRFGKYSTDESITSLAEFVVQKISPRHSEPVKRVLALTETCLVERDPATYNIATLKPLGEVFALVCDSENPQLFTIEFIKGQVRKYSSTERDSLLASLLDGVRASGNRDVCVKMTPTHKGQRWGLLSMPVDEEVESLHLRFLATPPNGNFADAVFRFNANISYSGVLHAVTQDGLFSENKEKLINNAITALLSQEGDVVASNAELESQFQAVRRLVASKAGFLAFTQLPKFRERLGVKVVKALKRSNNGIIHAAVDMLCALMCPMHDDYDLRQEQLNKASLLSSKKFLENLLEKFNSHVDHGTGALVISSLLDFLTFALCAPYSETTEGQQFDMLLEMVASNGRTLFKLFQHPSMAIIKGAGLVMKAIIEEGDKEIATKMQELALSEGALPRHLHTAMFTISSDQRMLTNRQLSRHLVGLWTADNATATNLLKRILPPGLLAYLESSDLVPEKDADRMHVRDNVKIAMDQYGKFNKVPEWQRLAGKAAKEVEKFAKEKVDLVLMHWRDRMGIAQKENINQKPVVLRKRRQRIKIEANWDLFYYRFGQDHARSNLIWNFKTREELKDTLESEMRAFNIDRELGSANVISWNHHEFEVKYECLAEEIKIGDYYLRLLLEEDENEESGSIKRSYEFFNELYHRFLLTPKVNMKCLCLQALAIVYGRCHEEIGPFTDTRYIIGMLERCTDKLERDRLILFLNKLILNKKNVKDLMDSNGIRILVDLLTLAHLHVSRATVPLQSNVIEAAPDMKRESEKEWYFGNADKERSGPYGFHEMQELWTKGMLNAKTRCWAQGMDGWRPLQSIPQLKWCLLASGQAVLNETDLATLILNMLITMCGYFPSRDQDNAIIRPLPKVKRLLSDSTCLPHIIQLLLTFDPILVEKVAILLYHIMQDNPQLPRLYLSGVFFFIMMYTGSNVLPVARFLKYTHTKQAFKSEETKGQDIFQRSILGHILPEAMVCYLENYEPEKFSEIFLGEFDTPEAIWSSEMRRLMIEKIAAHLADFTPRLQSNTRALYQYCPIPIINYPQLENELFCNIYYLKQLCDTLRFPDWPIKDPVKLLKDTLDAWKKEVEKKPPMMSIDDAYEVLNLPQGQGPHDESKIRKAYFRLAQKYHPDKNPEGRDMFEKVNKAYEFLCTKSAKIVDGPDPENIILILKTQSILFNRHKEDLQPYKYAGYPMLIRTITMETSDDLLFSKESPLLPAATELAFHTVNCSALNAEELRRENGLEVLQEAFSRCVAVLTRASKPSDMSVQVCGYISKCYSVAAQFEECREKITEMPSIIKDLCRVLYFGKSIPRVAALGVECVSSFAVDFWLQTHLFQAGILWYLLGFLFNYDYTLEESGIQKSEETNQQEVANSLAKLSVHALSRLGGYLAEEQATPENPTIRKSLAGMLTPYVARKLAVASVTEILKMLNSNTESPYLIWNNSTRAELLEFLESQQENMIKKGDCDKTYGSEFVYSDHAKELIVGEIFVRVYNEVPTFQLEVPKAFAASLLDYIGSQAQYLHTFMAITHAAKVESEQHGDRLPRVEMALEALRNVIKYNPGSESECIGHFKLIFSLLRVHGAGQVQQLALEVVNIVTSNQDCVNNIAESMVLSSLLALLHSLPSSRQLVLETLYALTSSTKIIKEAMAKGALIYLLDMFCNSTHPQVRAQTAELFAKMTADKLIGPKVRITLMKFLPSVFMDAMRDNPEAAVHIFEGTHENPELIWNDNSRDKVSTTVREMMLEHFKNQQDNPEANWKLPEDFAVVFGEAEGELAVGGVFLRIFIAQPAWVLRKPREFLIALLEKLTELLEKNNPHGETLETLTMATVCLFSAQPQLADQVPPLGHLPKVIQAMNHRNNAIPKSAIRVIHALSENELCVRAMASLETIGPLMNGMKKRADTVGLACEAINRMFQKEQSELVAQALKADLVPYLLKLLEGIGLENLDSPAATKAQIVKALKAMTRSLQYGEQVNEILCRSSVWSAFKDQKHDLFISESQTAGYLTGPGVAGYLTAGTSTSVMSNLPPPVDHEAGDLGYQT
UniProt Q8WXX5: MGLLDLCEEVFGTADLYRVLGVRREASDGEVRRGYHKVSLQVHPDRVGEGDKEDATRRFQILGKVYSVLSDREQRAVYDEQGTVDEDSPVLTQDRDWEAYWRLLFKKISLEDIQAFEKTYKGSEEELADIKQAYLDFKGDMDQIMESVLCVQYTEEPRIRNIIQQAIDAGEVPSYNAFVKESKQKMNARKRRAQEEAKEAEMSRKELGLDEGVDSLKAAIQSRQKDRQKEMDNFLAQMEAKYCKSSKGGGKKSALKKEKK

The list shows a part of the results.
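Note: competitive profiling in live THP-1 cells: cysteine peptides tagged with an iodoacetamide desthiobiotin (IA-DTB) probe, intensity after compound treatment relative to DMSO-treated cells.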

As to “DIAPH1_O60610_1227_AGCAVTSLLASELTK (UniProt O60610)”, the “probe-labelled cysteine peptide fold change” value runs as follows: (10 µM) -0.247; (50 µM) -0.511.

Consider “DIAPH1_O60610_964_LQFSEQVENIKPEIVSVTAACEELRK (UniProt O60610)”, for which the “probe-labelled cysteine peptide fold change” value is, setting by setting: (10 µM) -0.0186; (50 µM) 0.346.

As for “DHX30_Q7L2E3_286_LSTLTLLWPCPMTFVAK (UniProt Q7L2E3)”, the “probe-labelled cysteine peptide fold change” value runs as follows: (10 µM) -0.213; (50 µM) -0.0493.

Take “DIAPH1_O60610_164_DMPLLSCLESLR (UniProt O60610)”: the “probe-labelled cysteine peptide fold change” value is -0.0035 (10 µM) and -0.0498 (50 µM).

Regarding “DHX33_Q9H6R0_518_FHCTEEILTIVSLLSVDSVLHNPPSR (UniProt Q9H6R0)”, the “probe-labelled cysteine peptide fold change” value (10 µM) is -0.109 and the “probe-labelled cysteine peptide fold change” value (50 µM) is -0.689.

For “DHTKD1_Q96HY7_808_TLVFCSGK (UniProt Q96HY7)”, the “probe-labelled cysteine peptide fold change” value runs as follows: (10 µM) 0.0936; (50 µM) 0.131.

Take “DIS3_Q9Y2L1_474+492_HLCICSVDPPGCTDIDDALHCR (UniProt Q9Y2L1)”: the “probe-labelled cysteine peptide fold change” value was -0.0307 (10 µM) and -0.115 (50 µM).

In the case of “DHX40_Q8IX18_497_LGLSMVEFPLPPHLTCAVIK (UniProt Q8IX18)”, the “probe-labelled cysteine peptide fold change” value runs as follows: (10 µM) 0.0595; (50 µM) -0.186.

Turning to “DIP2A_Q14689_543_ALTQACGYSEAETLTNVLDFKR (UniProt Q14689)”, the “probe-labelled cysteine peptide fold change” value (10 µM) worked out at 0.123 and the “probe-labelled cysteine peptide fold change” value (50 µM) was found to be 0.3.

For the target “DNAJB14_Q8TBM8_178_QYDLTGNEEQACNHQNNGR (UniProt Q8TBM8)”, the “probe-labelled cysteine peptide fold change” value is, setting by setting: (10 µM) -0.197; (50 µM) -0.277.

For “DIS3_Q9Y2L1_799_LLAVAIGADCTYPELTDK (UniProt Q9Y2L1)”, the “probe-labelled cysteine peptide fold change” value is -0.154 (10 µM) and -0.114 (50 µM).

As for “DLD_P09622_85_NETLGGTCLNVGCIPSK (UniProt P09622)”, the “probe-labelled cysteine peptide fold change” value (10 µM) stood at 0.215 and the “probe-labelled cysteine peptide fold change” value (50 µM) was found to be 0.199.

Turning to “DNAJC13_O75165_1178_SILGHILPEAMVCYLENYEPEK (UniProt O75165)”, the “probe-labelled cysteine peptide fold change” value runs as follows: (10 µM) 0.018; (50 µM) 0.138.

In the case of “DHX9_Q08211_777_VRPGFCFHLCSR (UniProt Q08211)”, the “probe-labelled cysteine peptide fold change” value (10 µM) was -0.231 and the “probe-labelled cysteine peptide fold change” value (50 µM) was -0.0284.

Turning to “DIAPH2_O60879_159_HECTLSSQEYVHELR (UniProt O60879)”, the “probe-labelled cysteine peptide fold change” value runs as follows: (10 µM) -0.137; (50 µM) -0.304.

Take “DHX9_Q08211_415_GATGCGK (UniProt Q08211)”: the “probe-labelled cysteine peptide fold change” value by setting is: (10 µM) -0.0278; (50 µM) -0.0317.

As to “DLAT_P10515_164_DVPIGAIICITVGKPEDIEAFK (UniProt P10515)”, the “probe-labelled cysteine peptide fold change” value came to 0.115 (10 µM) and 0.118 (50 µM).

As for “DNAJC9_Q8WXX5_150_GDMDQIMESVLCVQYTEEPR (UniProt Q8WXX5)”, the “probe-labelled cysteine peptide fold change” value runs as follows: (10 µM) -0.127; (50 µM) 0.172.

“DHX40_Q8IX18_153_YMTDGCLLK (UniProt Q8IX18)”: the “probe-labelled cysteine peptide fold change” value is, setting by setting: (10 µM) 0.0621; (50 µM) 0.172.

For “DNAJC21_Q5F1R6_487_VPAEPQTMSVLISCTTCHSEFPSR (UniProt Q5F1R6)”, the “probe-labelled cysteine peptide fold change” value is, setting by setting: (10 µM) -0.257; (50 µM) -0.199.

With “DHX35_Q9H5Z1_609_CIVSGFFANAAR (UniProt Q9H5Z1)”, the “probe-labelled cysteine peptide fold change” value by setting is: (10 µM) 0.114; (50 µM) 0.0349.

As for “DLGAP4_Q9Y2H0_736_SLPDCTPHPNSISIDAGPR (UniProt Q9Y2H0)”, the “probe-labelled cysteine peptide fold change” value is -0.469 (10 µM) and -0.0948 (50 µM).

For “DHX29_Q7Z478_1245_LACIVETAQGK (UniProt Q7Z478)”, the “probe-labelled cysteine peptide fold change” value was determined as 0.0041 (10 µM) and 0.378 (50 µM).

Turning to “DHX16_O60231_932_VEVGLSSCQGDYIR (UniProt O60231)”, the “probe-labelled cysteine peptide fold change” value runs as follows: (10 µM) -0.184; (50 µM) 0.119.

Consider “DLST_P36957_104_AVGDTVAEDEVVCEIETDK (UniProt P36957)”, for which the “probe-labelled cysteine peptide fold change” value is, setting by setting: (10 µM) 0.279; (50 µM) 0.258.

As to “DIS3L2_Q8IYB7_216_DETTCISQDTR (UniProt Q8IYB7)”, the “probe-labelled cysteine peptide fold change” value (10 µM) is -0.209 and the “probe-labelled cysteine peptide fold change” value (50 µM) was determined as 0.0244.

As to “DHX29_Q7Z478_648_VCDELGCENGPGGR (UniProt Q7Z478)”, the “probe-labelled cysteine peptide fold change” value (10 µM) is 0.0694 and the “probe-labelled cysteine peptide fold change” value (50 µM) was -0.0626.

On to “DHX33_Q9H6R0_190_KYSCVILDEAHER (UniProt Q9H6R0)”, for which the “probe-labelled cysteine peptide fold change” value (10 µM) is -0.0316 and the “probe-labelled cysteine peptide fold change” value (50 µM) was -0.0932.

With “DHRS7_Q9Y394_233_TELATYPGIIVSNICPGPVQSNIVENSLAGEVTK (UniProt Q9Y394)”, the “probe-labelled cysteine peptide fold change” value runs as follows: (10 µM) 0.0345; (50 µM) 0.263.

As to “DIP2A_Q14689_6_GCPLEAAPLPAEVR (UniProt Q14689)”, the “probe-labelled cysteine peptide fold change” value runs as follows: (10 µM) -0.41; (50 µM) -2.19.

Turning to “DNM1L_O00429_644_DCEVIER (UniProt O00429)”, the “probe-labelled cysteine peptide fold change” value runs as follows: (10 µM) 0.0314; (50 µM) 0.289.

With “DNAJC13_O75165_884_CHEEIGPFTDTR (UniProt O75165)”, the “probe-labelled cysteine peptide fold change” value was -0.0153 (10 µM) and 0.254 (50 µM).

On to “DNAJC3_Q13217_248_ISTLYYQLGDHELSLSEVRECLK (UniProt Q13217)”, for which the “probe-labelled cysteine peptide fold change” value was -0.168 (10 µM) and -0.338 (50 µM).

The record behind these values is the supplement of paper PMC12067093, “Discovery and optimisation of a covalent ligand for TRIM25 and its application to targeted protein ubiquitination” (Chemical Science, 2025).
